No constants are given. Whether binding was seen depends on the method and setting. Binding seen in cells or lysates may run through a third protein. Some results given as binding are weak or reduced against the parent protein; the word gives no strength. Tags and fused reporters may be left off the sequences shown.
Biological target: T1, GFP-ACBD5 (not stated (human cDNA cloned; an EGFP-rACBD5 is also used)) (UniProt Q5T8D3)
T1 sequence: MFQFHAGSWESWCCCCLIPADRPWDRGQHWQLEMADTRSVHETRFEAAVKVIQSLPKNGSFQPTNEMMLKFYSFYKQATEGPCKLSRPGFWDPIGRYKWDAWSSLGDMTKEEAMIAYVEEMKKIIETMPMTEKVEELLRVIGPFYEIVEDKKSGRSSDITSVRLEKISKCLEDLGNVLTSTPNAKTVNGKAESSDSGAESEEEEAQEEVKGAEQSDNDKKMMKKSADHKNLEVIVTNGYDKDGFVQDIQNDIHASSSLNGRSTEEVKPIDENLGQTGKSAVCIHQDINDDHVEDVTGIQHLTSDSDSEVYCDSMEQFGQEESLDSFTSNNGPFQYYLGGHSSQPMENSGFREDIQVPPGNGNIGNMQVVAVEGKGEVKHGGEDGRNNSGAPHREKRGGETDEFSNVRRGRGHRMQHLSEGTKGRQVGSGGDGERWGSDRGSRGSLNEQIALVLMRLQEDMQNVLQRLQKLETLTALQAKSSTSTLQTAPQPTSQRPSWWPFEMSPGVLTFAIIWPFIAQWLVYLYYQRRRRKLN
Assay: co-IP; GFP-ACBD5 and Myc-VAPB coexpressed in COS-7 cells; lysate (25 mM Tris-HCl pH 7.5, 150 mM NaCl, 1% NP-40) on GFP-TRAP magnetic agarose beads, 2 h at 4°C; immunoblot with Myc and GFP antibodies

Protein sequences, listed by entry. Tags and fused reporters are not part of them.
UniProt O95292: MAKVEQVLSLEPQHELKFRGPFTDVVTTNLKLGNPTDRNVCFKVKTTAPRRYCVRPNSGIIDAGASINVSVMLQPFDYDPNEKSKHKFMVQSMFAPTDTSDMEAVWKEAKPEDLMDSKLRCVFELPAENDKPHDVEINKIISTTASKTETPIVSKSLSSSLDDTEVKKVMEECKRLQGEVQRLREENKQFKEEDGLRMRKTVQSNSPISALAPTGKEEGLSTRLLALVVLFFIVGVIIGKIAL

## Myc-VAPB (from UniProt O95292 1-243)
  binding: binds

— paper PMC5294785
